These are yes or no findings as the source states them, for the method shown. In cells and extracts the contact can be indirect. These calls come from enrichment with a bait or labelling near it, and not all partners need be listed.
T1: Cep78 (endogenous, mouse testis) (mouse (endogenous in testis)) (UniProt Q6IRU7)
T1 sequence: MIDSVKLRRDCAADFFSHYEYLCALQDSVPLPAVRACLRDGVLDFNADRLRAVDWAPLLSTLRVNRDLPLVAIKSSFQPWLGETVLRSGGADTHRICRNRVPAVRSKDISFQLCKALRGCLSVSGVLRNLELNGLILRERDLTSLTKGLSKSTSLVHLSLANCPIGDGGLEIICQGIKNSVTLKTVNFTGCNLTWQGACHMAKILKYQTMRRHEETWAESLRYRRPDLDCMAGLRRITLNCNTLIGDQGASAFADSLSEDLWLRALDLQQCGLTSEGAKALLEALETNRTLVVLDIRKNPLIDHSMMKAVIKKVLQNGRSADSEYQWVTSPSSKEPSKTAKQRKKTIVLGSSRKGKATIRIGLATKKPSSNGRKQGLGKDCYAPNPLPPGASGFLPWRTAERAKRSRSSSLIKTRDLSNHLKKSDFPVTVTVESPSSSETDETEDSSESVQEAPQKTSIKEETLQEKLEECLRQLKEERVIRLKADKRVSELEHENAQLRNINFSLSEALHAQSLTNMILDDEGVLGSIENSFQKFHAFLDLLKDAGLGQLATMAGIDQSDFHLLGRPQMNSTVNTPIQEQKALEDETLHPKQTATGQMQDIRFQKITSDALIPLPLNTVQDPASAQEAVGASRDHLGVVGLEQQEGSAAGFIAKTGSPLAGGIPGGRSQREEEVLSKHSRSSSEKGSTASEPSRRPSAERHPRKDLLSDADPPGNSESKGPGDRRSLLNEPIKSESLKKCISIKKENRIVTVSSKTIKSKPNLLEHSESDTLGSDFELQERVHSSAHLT

Protein sequences, listed by entry. Tags and fused reporters are not part of them.
UniProt Q61025: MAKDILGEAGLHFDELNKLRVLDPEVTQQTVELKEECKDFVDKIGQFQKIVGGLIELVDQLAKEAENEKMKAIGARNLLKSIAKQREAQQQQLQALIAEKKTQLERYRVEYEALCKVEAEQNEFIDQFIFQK

B1: Ttc21a (endogenous, mouse testis) (protein, UniProt Q8C0S4 1-1314)
chain: MSSDDSSLMASIIYYSQEKYFHHVLQAANVGLERYSSDPALQFFRAYGILGEDHIHDAISELEGIQSHPDTSLCAVIALLSAHKSCDTIDIEAVQELESSLKEIRRSASSTALYYASLFLWFMGHHDKAREYVDHMLKVSSGSKEGYVLKGWVDLTSSKPHVVKKSIKYLEQGTQDTKDVLGLMGKATYFMTQQNFSGALEVANQVTLACSNFLPALVLKMKLFLARQDWDQTIETGQRILEKDENNIDAWQILAVHELVKEGNTDRAADRVRNLIKALETGEPHNPNLHLKKILVISRLCGRHQVVHRLVSGFLERIFMATPSCALVATELGYLFILHQQVKEACLWYKEAMKLEENRLAALAGSIWCQILQGQLEEAAHQLEFLKEVQQSLGKSELLVFLQALVAAKKQRLEQEATALLKEAVEVHFSSMQGLALSPEYFEKLDPLFLVCIAKEYLHFCPKQPRSPGQLVSPLLKQVAMILSPVVKVAPAMMEPLYVTAQVKFLSGELENAQSTLQRCLELDPTFVDAHLLMSQIYLAQGNFAMCSHCLELGVSHNFQVRDHPLYHFIKARALNKTGDYAEAIKTLKMIIKVPTSKAEEGRKSQSPSVRPSERASILLELVEALRLNGELHEATKIMQDAINEFSGTPEEMRITVANVDLALSKGNVDLALNMLRGITPKQPCYTEAKEKMASIYLHTRKDVRLYIGCYVELCEHLPGPHSSLLLGDAFMNIQEPEKALEVYDEAYRKNPHDASLVSRIGQAYVKTHQYAKAINYYEAAQKISGQDFLCCELAELLLKLKKYHKAEKVLKQALERDSGVKDIPSMINEVKCLLLLAKVYKSHKKEEVMETLNLALDLQSRILKRVPLEQSEMIPFQNQLAASICIQIGEHHLAEKDYDSALKSYKDALAYSPTDSKVVLELAHLYLLLGQLDLCEQRCAPLLEMEQTHERAAVMLADLMFRRQNYETAINLYHQVLEKAPDNFLVLNKLVDLLRRSGKLEEAPAFFELAKKVSSRVPLEPGFNYCQGIYFWHIGQPNEALRFLNKARKDSTWGQLATCYMVQICLNPDNEIVGGEAFESLVGDSNSASRKESQQHGVRTAEKLLREFYPHSESGQTQLRLLQNLCLLATREKANVEVALGAFIEMAQAEKDSIPALLAMAQAYILLKQVPKARTQLKRLAKVPWTVDEAEDLEKSWLLLADIYCQGGKFDLALELLRRCLQYNKSCCRAYEYMGFIMEKEQSYKDAATNYELAWKYSHQANPAIGFKLAFNYLKDKKFVDAIEVCHSVLTEHPKYPKIREEILEKAQGSLRP

Biological target: T1, Cep78 (endogenous, mouse testis) (mouse (endogenous in testis))
Assay: affinity purification with mass spectrometry

Molecule	binding
Ift20 (endogenous, mouse testis) (from UniProt Q61025 1-132)	binds
B1	binds
